These are yes or no findings as the source states them, for the method shown. In cells and extracts the contact can be indirect. Here binding means that the protein was enriched with, or labelled near, the bait; the list need not be complete.
Target: wild-type ALKBH5-FLAG (UniProt Q6P6C2)
Test: affinity purification with mass spectrometry; wild-type ALKBH5 or K235R plasmid cotransfected with the KAT8 vector into ALKBH5 KO HeLa cells; co-IPed complexes, silver-stained gel bands identified by nano-LC-MS/MS

Amino acid sequences for entries named in this document (tags omitted).
UniProt Q6P6C2: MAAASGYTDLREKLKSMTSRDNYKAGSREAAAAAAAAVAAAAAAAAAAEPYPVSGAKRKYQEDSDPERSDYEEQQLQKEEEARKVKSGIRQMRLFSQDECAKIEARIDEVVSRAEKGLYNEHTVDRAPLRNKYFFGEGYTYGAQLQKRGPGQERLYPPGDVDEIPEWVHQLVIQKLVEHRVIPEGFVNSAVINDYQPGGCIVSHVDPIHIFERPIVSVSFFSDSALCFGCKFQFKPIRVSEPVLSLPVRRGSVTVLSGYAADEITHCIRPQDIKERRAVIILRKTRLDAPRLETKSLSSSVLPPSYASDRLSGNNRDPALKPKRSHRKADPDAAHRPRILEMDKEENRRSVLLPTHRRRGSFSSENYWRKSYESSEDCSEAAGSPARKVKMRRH

B1: endogenous PSPC1 (protein, UniProt Q8WXF1 1-523)
chain: MMLRGNLKQVRIEKNPARLRALESAVGESEPAAAAAMALALAGEPAPPAPAPPEDHPDEEMGFTIDIKSFLKPGEKTYTQRCRLFVGNLPTDITEEDFKRLFERYGEPSEVFINRDRGFGFIRLESRTLAEIAKAELDGTILKSRPLRIRFATHGAALTVKNLSPVVSNELLEQAFSQFGPVEKAVVVVDDRGRATGKGFVEFAAKPPARKALERCGDGAFLLTTTPRPVIVEPMEQFDDEDGLPEKLMQKTQQYHKEREQPPRFAQPGTFEFEYASRWKALDEMEKQQREQVDRNIREAKEKLEAEMEAARHEHQLMLMRQDLMRRQEELRRLEELRNQELQKRKQIQLRHEEEHRRREEEMIRHREQEELRRQQEGFKPNYMENREQEMRMGDMGPRGAINMGDAFSPAPAGNQGPPPMMGMNMNNRATIPGPPMGPGPAMGPEGAANMGTPMMPDNGAVHNDRFPQGPPSQMGSPMGSRTGSETPQAPMSGVGPVSGGPGGFGRGSQGGNFEGPNKRRRY
binding: binds
